EP1020519A1, “Minor histocompatibility antigens and their use in the diagnosis and treatment of tumors” (Introgene B.V., priority 1999, dated 2000)
Not every detail of the peptide structures is certain; ends, links or a residue may be inferred. Ends that are not written are not given here.

Tested on: CD8-positive T cells
Experiment: In vitro generation of HB-1 specific CTL with peptide-loaded dendritic cells
Type: cell-based, human
Details: CD8-positive T cells of healthy HLA-B44-positive individuals stimulated with peptide-loaded autologous dendritic cells

Sequence: EEKRGSLHVW [EEKRGSLHVW]
- generation of HB-1 specific CTL in vitro: succeeded in generating HB-1 specific CTL in vitro
